Measurements: PMC12890814
No constants are given. Whether binding was seen depends on the method and setting. Some binding calls cover weakened binding; strength is not graded here.

The chains behind the UniProt entries cited, without tags or fusion partners. Where a name states a change or a piece, a line headed by the entry shows the natural chain unless it says otherwise.
UniProt Q15910: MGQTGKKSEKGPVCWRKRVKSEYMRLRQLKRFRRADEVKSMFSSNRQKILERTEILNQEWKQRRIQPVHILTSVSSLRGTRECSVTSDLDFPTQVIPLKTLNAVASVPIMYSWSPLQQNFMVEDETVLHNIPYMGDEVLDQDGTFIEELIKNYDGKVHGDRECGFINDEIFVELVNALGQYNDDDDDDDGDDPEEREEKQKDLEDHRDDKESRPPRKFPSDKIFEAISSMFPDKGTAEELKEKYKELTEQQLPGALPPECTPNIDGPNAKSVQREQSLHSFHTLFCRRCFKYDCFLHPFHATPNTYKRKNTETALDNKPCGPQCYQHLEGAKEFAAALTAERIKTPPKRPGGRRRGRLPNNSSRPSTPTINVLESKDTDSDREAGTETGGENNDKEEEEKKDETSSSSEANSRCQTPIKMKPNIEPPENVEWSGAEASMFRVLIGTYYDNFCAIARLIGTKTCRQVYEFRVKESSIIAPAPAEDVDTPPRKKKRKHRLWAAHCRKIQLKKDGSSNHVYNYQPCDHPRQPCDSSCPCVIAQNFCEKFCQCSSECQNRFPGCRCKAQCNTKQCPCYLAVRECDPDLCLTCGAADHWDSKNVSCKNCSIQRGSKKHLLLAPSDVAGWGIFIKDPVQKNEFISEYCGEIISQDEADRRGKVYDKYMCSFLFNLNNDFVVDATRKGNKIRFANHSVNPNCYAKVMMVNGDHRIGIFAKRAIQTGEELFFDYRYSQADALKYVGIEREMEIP
UniProt Q15022: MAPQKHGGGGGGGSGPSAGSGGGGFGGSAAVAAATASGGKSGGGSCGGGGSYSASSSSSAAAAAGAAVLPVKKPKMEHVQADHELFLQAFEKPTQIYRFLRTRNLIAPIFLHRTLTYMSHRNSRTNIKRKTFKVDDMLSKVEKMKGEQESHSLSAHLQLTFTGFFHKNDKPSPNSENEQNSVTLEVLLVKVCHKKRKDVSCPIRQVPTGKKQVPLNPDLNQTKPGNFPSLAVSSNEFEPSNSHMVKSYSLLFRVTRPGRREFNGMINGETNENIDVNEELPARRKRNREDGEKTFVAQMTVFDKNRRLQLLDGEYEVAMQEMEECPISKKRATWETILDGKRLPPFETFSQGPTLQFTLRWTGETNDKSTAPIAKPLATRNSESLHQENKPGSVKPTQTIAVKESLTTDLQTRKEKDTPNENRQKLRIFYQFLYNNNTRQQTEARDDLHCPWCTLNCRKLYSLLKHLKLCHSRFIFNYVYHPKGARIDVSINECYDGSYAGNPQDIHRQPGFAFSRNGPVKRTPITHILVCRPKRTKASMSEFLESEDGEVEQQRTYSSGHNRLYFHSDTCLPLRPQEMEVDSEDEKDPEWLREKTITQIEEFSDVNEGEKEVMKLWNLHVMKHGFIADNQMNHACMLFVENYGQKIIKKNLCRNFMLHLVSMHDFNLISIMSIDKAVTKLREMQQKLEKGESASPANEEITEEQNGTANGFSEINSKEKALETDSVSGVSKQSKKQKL
UniProt O75530: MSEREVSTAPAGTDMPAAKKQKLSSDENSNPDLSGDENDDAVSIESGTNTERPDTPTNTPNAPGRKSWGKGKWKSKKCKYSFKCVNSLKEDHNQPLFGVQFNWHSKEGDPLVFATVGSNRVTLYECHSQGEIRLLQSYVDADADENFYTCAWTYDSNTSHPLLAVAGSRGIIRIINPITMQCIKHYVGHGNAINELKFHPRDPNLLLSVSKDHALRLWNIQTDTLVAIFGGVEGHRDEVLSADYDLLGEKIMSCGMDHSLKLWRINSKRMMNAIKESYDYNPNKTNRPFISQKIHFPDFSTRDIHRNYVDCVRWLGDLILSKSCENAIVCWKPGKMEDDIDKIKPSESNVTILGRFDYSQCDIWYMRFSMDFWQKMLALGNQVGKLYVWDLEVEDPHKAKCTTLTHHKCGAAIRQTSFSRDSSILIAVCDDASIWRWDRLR
UniProt Q09028: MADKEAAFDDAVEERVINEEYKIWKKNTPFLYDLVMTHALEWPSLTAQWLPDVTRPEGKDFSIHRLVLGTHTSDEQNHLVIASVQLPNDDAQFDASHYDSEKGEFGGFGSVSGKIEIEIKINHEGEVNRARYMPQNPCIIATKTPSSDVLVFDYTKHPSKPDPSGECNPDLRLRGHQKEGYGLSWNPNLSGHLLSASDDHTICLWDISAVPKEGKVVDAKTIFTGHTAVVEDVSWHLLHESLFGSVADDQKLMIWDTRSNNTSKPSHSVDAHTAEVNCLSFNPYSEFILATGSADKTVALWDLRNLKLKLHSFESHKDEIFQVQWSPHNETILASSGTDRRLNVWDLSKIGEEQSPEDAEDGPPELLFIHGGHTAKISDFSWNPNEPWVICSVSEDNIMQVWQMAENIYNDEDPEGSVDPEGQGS
UniProt Q9Y483: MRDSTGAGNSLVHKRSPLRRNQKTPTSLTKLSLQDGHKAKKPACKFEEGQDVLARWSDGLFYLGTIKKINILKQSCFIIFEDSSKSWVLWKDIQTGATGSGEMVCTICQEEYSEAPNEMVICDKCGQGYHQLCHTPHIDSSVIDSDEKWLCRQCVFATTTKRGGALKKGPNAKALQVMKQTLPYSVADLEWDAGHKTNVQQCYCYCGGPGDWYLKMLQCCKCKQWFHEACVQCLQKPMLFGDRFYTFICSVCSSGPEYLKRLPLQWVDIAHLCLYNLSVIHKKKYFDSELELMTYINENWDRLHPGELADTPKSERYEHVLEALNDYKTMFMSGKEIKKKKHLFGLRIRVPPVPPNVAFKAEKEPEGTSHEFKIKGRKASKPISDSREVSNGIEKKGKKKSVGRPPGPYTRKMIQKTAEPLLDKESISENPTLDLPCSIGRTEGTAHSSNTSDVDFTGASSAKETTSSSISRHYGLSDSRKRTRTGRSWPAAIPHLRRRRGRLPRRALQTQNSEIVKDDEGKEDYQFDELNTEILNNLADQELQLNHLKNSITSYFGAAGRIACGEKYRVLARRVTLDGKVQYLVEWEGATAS

Target: PRC2 core complex (EZH2, SUZ12, EED, RBAP48) (human) (UniProt Q15910+Q15022+O75530+Q09028)
Assay: co-purification of co-expressed subunits (affinity resin, then SEC); All subunits co-expressed in Sf9 from one baculovirus; lysate in BC150 buffer; Strep-Tactin Macroprep resin (Strep on MTF2 and EZH2), tags cleaved, Superose 6 SEC, peak fractions pooled; subunits shown by Coomassie staining

**Q.** With MTF2 (from UniProt Q9Y483 1-593) as the substance, how does the binding read?
**A.** binds
